# In paper PMC12172478:
# Chains of the proteins cited; added tags and fusions are not shown.
# UniProt O56129: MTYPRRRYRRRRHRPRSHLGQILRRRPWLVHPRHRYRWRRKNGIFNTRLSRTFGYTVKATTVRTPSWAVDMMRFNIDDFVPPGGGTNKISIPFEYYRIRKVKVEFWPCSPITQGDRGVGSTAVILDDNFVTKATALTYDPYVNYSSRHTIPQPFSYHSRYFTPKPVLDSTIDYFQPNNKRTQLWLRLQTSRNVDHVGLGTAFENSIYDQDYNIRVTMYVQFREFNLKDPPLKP
# These are yes or no findings as the source states them, for the method shown. In cells and extracts the contact can be indirect. Binding calls can cover weak binding; strength is not graded here.
# Target: FLAG-DDX10 (porcine (cDNA from PK-15 cells)) (UniProt F1SV16)
# Experiment: co-IP; HEK293T cells co-transfected with the two plasmids for 48 h; NP-40 lysis buffer; immunoprecipitated with anti-FLAG beads, anti-GFP mAbs or glutathione agarose beads; washed three times; Western blot
substance,measurement,value
GFP-PCV2-Cap (from UniProt O56129 1-233),binding,binds
